# Source: paper PMC7819943, “Rice protein-binding microarrays: a tool to detect cis-acting elements near promoter regions in rice”
# This is one part of the list.
# Target: T1, OsSMF1 (Oryza sativa, UniProt Q6ZLB0 1-436)
# T1 sequence: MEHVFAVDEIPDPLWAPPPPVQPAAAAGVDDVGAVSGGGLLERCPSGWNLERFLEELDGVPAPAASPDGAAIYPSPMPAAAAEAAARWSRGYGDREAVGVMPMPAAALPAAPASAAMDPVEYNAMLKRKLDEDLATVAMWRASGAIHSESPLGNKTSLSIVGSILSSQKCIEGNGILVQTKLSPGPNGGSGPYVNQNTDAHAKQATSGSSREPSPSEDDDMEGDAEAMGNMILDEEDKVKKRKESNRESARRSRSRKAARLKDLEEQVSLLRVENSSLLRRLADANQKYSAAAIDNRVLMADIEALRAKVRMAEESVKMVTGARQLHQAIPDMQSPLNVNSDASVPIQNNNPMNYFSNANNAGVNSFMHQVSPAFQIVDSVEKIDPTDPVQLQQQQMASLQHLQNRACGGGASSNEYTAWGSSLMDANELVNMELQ
# Test: protein-binding microarray (RPBM); PBS, 2% BSA, 51.3 ng/ul salmon testes DNA, 50 uM zinc acetate, 200 nM TF, 25 C, 1 h; high values mean tight binding
# Conditions: protein: recombinant; tags: N-terminal polyhistidine and DsRed monomer fusion (pET32a); chain copies: 2; label: CyDye5-dUTP incorporated in the synthesized complementary strand; 3' TTTTT single-stranded linker to array surface; dsDNA, one strand shown
# Summary of the method: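 An Axon 4000B scanner gave the binding signal as per-feature fluorescence intensity in arbitrary units. This followed washing of a custom Agilent array that had been incubated for 1 h at 25 °C with 200 nM protein in PBS, 2% BSA, salmon testes DNA and 50 µM zinc acetate. The proteins were transcription factors fused at the N-terminus to polyhistidine and DsRed, expressed in E. coli BL21-CodonPlus and purified on Ni–NTA.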
row,Sequence,binding signal
1,GCGCTGAAGATGTCCTGCGTGCACGCGACATCATCGTCAACGGAGTCACCTAGTGCAG,4450 fluorescence intensity (a.u.)
2,TGGCCATCTTTATGTCCTACGTCATCTGTAGGTGGATCCTCGGAGTCACCTAGTGCAG,9970 fluorescence intensity (a.u.)
3,TGTTCTTATGTTCAACTCCCGGGACACTGTTCATCATACGCGGAGTCACCTAGTGCAG,4110 fluorescence intensity (a.u.)
4,GGTTCGGCGGCCGCAGGTGCCAGTCCACCGACGACGACGCCGGAGTCACCTAGTGCAG,32800 fluorescence intensity (a.u.)
5,GCATGGCTCCAGGACCAAGTGGAGCATCTGGCCAGTGCTGCGGAGTCACCTAGTGCAG,15200 fluorescence intensity (a.u.)
6,TTCTGAGGTTACTGCACATGAGTTCATTCTACAGCAACTACGGAGTCACCTAGTGCAG,33000 fluorescence intensity (a.u.)
7,CTAATATTTATTGGATGACGTGGCTCATTTACGTTTCGTTCGGAGTCACCTAGTGCAG,27300 fluorescence intensity (a.u.)
8,AGCCCCGGAGGAAGAAGACTCTCGGTCAAGAGTCAAGACTCGGAGTCACCTAGTGCAG,17200 fluorescence intensity (a.u.)
9,CCCACTCCAGAACGCCAGCCAGCCTGCCTGCCACATGGGGCGGAGTCACCTAGTGCAG,3800 fluorescence intensity (a.u.)
10,GCGGGAACACACCGCCGTAGCAAACCCCGCATCCGGCACCCGGAGTCACCTAGTGCAG,17400 fluorescence intensity (a.u.)
11,ACGTGCCCAAACATGAATGAGTTAGATATATTGTTTCATCCGGAGTCACCTAGTGCAG,3340 fluorescence intensity (a.u.)
12,TTCCAATCCTTGCCACGCCCACCGCAGACCAAAGCCGCGCCGGAGTCACCTAGTGCAG,3440 fluorescence intensity (a.u.)
13,CTTCTAAGTAGGAAAATATGCTGACATGGATATCTTATAGCGGAGTCACCTAGTGCAG,5070 fluorescence intensity (a.u.)
14,ATGGTATTGTGAGTAATAAGCTCCTGACATGTGTGGTTTCCGGAGTCACCTAGTGCAG,5210 fluorescence intensity (a.u.)
15,TCCTCACATGATGTACAGTCACACACACTCCTCCTCTCTCCGGAGTCACCTAGTGCAG,8550 fluorescence intensity (a.u.)
16,TGCTATGCTTATTACAATGCTATGCTGACAGACCATTTTGCGGAGTCACCTAGTGCAG,4540 fluorescence intensity (a.u.)
17,GTTCTGTCTTAACCTGCTTTCATATTAATTGTTAAAGTTGCGGAGTCACCTAGTGCAG,3280 fluorescence intensity (a.u.)
18,TCGTGCCAGGGCCCGTGCCACGCCAAGCCGCACTTCTAACCGGAGTCACCTAGTGCAG,4540 fluorescence intensity (a.u.)
19,CTGCGTTCCAGTGCCAGTCCATCTCCAGTGGTCAGCGGCGCGGAGTCACCTAGTGCAG,3650 fluorescence intensity (a.u.)
20,AATAGGCGATCAGGAACCGTGGATGCGTAGAGCTCGCCGACGGAGTCACCTAGTGCAG,33900 fluorescence intensity (a.u.)
21,CTACCCTGGACGAAGCCGGGCGGCGGTGTCACCTCTCGCCCGGAGTCACCTAGTGCAG,3860 fluorescence intensity (a.u.)
22,CTTTTGCCAAGCTGGATAGTGGACATCACACAACCAACCGCGGAGTCACCTAGTGCAG,4460 fluorescence intensity (a.u.)
23,ACACACCCCTAGAATGGCGATGAGGACGAAGCTGATGTGGCGGAGTCACCTAGTGCAG,9610 fluorescence intensity (a.u.)

# An excerpt of these results, as tab-separated lines:
row	Sequence	binding signal
18	TCGTGCCAGGGCCCGTGCCACGCCAAGCCGCACTTCTAACCGGAGTCACCTAGTGCAG	4540 fluorescence intensity (a.u.)
19	CTGCGTTCCAGTGCCAGTCCATCTCCAGTGGTCAGCGGCGCGGAGTCACCTAGTGCAG	3650 fluorescence intensity (a.u.)
20	AATAGGCGATCAGGAACCGTGGATGCGTAGAGCTCGCCGACGGAGTCACCTAGTGCAG	33900 fluorescence intensity (a.u.)
21	CTACCCTGGACGAAGCCGGGCGGCGGTGTCACCTCTCGCCCGGAGTCACCTAGTGCAG	3860 fluorescence intensity (a.u.)
22	CTTTTGCCAAGCTGGATAGTGGACATCACACAACCAACCGCGGAGTCACCTAGTGCAG	4460 fluorescence intensity (a.u.)
23	ACACACCCCTAGAATGGCGATGAGGACGAAGCTGATGTGGCGGAGTCACCTAGTGCAG	9610 fluorescence intensity (a.u.)
